PubChem BioAssay AID1259263, Sanger Institute, 2017

Assay: 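Recheck kinase screen hits for synergy with three targeted cancer drugs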 (follow-up of hits)
System: SW1463 human colorectal cancer cell line
Reagents: single siRNA against human genes
Conditions: anchor drugs BYL719 at 1 µM, cetuximab at 5 µg/ml or trametinib at 10 nM, or DMSO vehicle, added one day after siRNA transfection
Measured: 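Replicate-mean survival scaled to a non-targeting siRNA control, and a synergy score of actual versus predicted viability drop when siRNA and drug act together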
Direction: synergy score with trametinib and synergy score with BYL719 and synergy score with cetuximab: higher = stronger synthetic lethal effect with the drug
Call rule: 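Called active if the synergy score is above 0.10 for one or more of the three anchor drugs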
Meaning of the calls: active = synergy with at least one drug; inactive = no synergy with any drug
Shown is a random part of 160 deposited reagents. 101 of them (63%) were called active. 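Drug doses chosen to kill few cells alone; each row is one siRNA, and a gene counts as confirmed only if two or more siRNAs show synergy.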 Further read-outs or replicates are left out here. The record does not give: the amount of reagent, the time to read-out.

gene	PubChem SID	synergy score with trametinib	synergy score with BYL719	synergy score with cetuximab	Outcome
CRIM1 (cysteine rich transmembrane BMP regulator 1)	SID134243173	-0.102	0.148	0.135	
CRIM1 (cysteine rich transmembrane BMP regulator 1)	SID134243174	-0.34	0.114	-0.121	
CRIM1 (cysteine rich transmembrane BMP regulator 1)	SID134243175	0.344	0.224	-0.000604	active
CRIM1 (cysteine rich transmembrane BMP regulator 1)	SID134243176	0.234	0.105	0.125	active
IRAK1 (interleukin 1 receptor associated kinase 1)	SID56476703	0.428	0.0946	0.0959	active
IRAK1 (interleukin 1 receptor associated kinase 1)	SID56476704	0.0761	0.367	0.117	
IRAK1 (interleukin 1 receptor associated kinase 1)	SID56476705	0.0103	-0.0574	-0.171	inactive
IRAK1 (interleukin 1 receptor associated kinase 1)	SID56476706	-0.257	0.0288	-0.175	inactive
SYNCRIP (synaptotagmin binding cytoplasmic RNA interacting protein)	SID134270601	0.0214	-0.35	-0.207	inactive
SYNCRIP (synaptotagmin binding cytoplasmic RNA interacting protein)	SID134270602	0.132	0.0102	-0.00565	active
SYNCRIP (synaptotagmin binding cytoplasmic RNA interacting protein)	SID134270603	0.18	-0.564	-0.201	active
SYNCRIP (synaptotagmin binding cytoplasmic RNA interacting protein)	SID134270604	0.0408	-0.265	-0.369	inactive
GRK5 (G protein-coupled receptor kinase 5)	SID56476519	-0.343	0.1	0.164	
GRK5 (G protein-coupled receptor kinase 5)	SID56476520	0.103	-0.128	0.0787	active
GRK5 (G protein-coupled receptor kinase 5)	SID56476521	0.206	0.245	-0.0953	active
GRK5 (G protein-coupled receptor kinase 5)	SID56476522	0.149	0.0692	0.142	active
MPP3 (MAGUK p55 scaffold protein 3)	SID56478207	0.143	-0.0603	-0.0799	active
MPP3 (MAGUK p55 scaffold protein 3)	SID56478208	0.128	-0.038	0.38	active
MPP3 (MAGUK p55 scaffold protein 3)	SID56478209	0.3	0.195	0.0497	active
MPP3 (MAGUK p55 scaffold protein 3)	SID56478210	0.208	-0.175	0.0836	active
MARK3 (microtubule affinity regulating kinase 3)	SID56475931	0.202	-0.161	0.156	active
MARK3 (microtubule affinity regulating kinase 3)	SID56475932	0.0549	-0.00799	0.0846	inactive
MARK3 (microtubule affinity regulating kinase 3)	SID56475933	0.216	-0.225	0.00963	active
MARK3 (microtubule affinity regulating kinase 3)	SID56475934	0.207	-0.176	-0.0848	active
RPS6KA4 (ribosomal protein S6 kinase A4)	SID56476603	-0.0595	0.0374	-0.0153	inactive
RPS6KA4 (ribosomal protein S6 kinase A4)	SID56476604	0.425	0.0076	-0.0898	active
RPS6KA4 (ribosomal protein S6 kinase A4)	SID56476605	0.25	0.0147	-0.0443	active
RPS6KA4 (ribosomal protein S6 kinase A4)	SID56476606	0.297	-0.042	-0.0915	active
SF3B1 (splicing factor 3b subunit 1)	SID152148776	0.0828	0.155	0.0557	
SF3B1 (splicing factor 3b subunit 1)	SID152150545	0.135	-0.238	-0.126	active
SF3B1 (splicing factor 3b subunit 1)	SID152153930	0.245	0.0757	-0.185	active
SF3B1 (splicing factor 3b subunit 1)	SID152156441	0.0513	-0.0453	-0.161	inactive
EPHA6 (EPH receptor A6)	SID56477259	0.137	0.0876	0.0246	active
EPHA6 (EPH receptor A6)	SID56477260	0.127	-0.0898	0.181	active
EPHA6 (EPH receptor A6)	SID56477261	0.018	0.032	-0.0327	inactive
EPHA6 (EPH receptor A6)	SID56477262	0.0189	-0.00195	0.0645	inactive
COASY (Coenzyme A synthase)	SID56477723	-0.0624	-0.152	-0.212	inactive
COASY (Coenzyme A synthase)	SID56477724	0.0412	0.0109	-0.0389	inactive
COASY (Coenzyme A synthase)	SID56477725	0.0322	0.0979	-0.00843	inactive
COASY (Coenzyme A synthase)	SID56477726	0.0213	-0.114	-0.132	inactive
CDKN2D (cyclin dependent kinase inhibitor 2D)	SID56475683	0.26	-0.21	-0.212	active
CDKN2D (cyclin dependent kinase inhibitor 2D)	SID56475684	0.393	0.541	0.356	active
CDKN2D (cyclin dependent kinase inhibitor 2D)	SID56475686	0.366	-0.0418	0.0352	active
CDKN2D (cyclin dependent kinase inhibitor 2D)	SID135611272	0.133	0.201	0.297	active
PIK3CA	SID56475149	0.0342	0.131	-0.0927	
PIK3CA	SID56475150	0.0887	0.159	0.0913	
PIK3CA	SID135611211	0.232	0.0511	0.0871	active
PIK3CA	SID135611212	0.0575	-0.00837	-0.175	inactive
CHD4 (chromodomain helicase DNA binding protein 4)	SID134247681	0.161	0.31	-0.166	active
CHD4 (chromodomain helicase DNA binding protein 4)	SID134247682	0.0677	0.106	-0.0965	
CHD4 (chromodomain helicase DNA binding protein 4)	SID134247683	-0.0675	-0.0658	-0.0306	inactive
CHD4 (chromodomain helicase DNA binding protein 4)	SID134247684	0.25	-0.0902	0.218	active

Just “synergy score with trametinib” (7 entries from above):
MARK3 (microtubule affinity regulating kinase 3) [SID56475931] = 0.202
MARK3 (microtubule affinity regulating kinase 3) [SID56475932] = 0.0549
MARK3 (microtubule affinity regulating kinase 3) [SID56475933] = 0.216
MARK3 (microtubule affinity regulating kinase 3) [SID56475934] = 0.207
RPS6KA4 (ribosomal protein S6 kinase A4) [SID56476603] = -0.0595
RPS6KA4 (ribosomal protein S6 kinase A4) [SID56476604] = 0.425
RPS6KA4 (ribosomal protein S6 kinase A4) [SID56476605] = 0.25
